Laboratory results as given in PMC7862700.
The list shows a part of the results, in another mix than the full data. At the low end of the ranking, values are background and their order means little.

The chains behind the UniProt entries cited, without tags or fusion partners. Where a name states a change or a piece, a line headed by the entry shows the natural chain unless it says otherwise.
UniProt O43186: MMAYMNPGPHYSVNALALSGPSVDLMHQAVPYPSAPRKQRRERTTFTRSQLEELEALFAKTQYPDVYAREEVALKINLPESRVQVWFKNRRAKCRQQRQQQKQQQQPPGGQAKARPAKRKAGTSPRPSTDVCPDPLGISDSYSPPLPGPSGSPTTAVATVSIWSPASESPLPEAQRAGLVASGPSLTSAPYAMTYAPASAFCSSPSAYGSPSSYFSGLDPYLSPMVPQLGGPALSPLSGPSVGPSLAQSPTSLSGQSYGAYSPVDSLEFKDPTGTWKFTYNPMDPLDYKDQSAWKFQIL

Legend:
Assay in all cases: DAPPL (digital affinity profiling via proximity ligation, sequencing)
Settings in all cases: 10 mM Tris-HCl pH 7.5, 50 mM NaCl, 1 mM DTT, 4% glycerol, room temperature, 30 min; GST-TFs on glutathione beads, 16-mer random dsDNA library, 0.1% …; high values mean tight binding; double strand, one strand shown; scale: fold enrichment (6-mer frequency, TF over GST control)
FEV = molecular target: T1, FEV (UniProt Q99581)
T1 sequence: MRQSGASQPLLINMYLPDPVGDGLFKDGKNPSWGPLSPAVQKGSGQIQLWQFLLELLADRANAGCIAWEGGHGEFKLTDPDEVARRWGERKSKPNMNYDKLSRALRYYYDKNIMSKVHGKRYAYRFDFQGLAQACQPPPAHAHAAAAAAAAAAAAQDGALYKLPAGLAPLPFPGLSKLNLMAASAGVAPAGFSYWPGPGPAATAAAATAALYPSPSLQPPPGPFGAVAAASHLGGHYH

CRX = CRX (UniProt O43186)
ELF5 = molecular target: T2, ELF5 (UniProt Q9UKW6-2)
T2 sequence: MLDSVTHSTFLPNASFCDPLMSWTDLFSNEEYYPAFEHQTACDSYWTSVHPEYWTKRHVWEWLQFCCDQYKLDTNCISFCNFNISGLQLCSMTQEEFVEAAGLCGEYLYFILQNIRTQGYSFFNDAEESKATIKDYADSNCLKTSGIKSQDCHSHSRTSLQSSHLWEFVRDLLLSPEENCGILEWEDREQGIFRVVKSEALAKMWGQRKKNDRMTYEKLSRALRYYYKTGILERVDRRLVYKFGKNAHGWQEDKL

Row | Sequence | binding signal (FEV) | binding signal (CRX) | binding signal (ELF5)
1 | GTATGA | 0.918 | 0.777 | 0.978
2 | GTTCGT | 0.922 | 0.769 | 0.956
3 | TTGGGA | 0.888 | 1.04 | 0.91
4 | CCATAG | 0.854 | 0.902 | 0.932
5 | CTAGGA | 0.812 | 0.936 | 0.937
6 | GCAAGC | 0.861 | 0.771 | 0.798
7 | GTACAG | 0.936 | 0.711 | 0.903
8 | CGAGAA | 0.824 | 1.27 | 0.854
9 | CGACCA | 1.3 | 0.938 | 1.2
10 | GTCACC | 0.925 | 0.605 | 0.905
11 | CGAGGT | 0.846 | 0.731 | 0.859
12 | CATTTT | 1.19 | 1.04 | 1.22
13 | GACCAA | 0.96 | 0.751 | 0.904
14 | AGCGAA | 0.873 | 0.839 | 0.872
15 | GCGAAA | 0.959 | 0.828 | 0.923
16 | TGGGTT | 0.999 | 0.996 | 1.01
17 | ACGCGT | 0.955 | 0.812 | 0.952
18 | TCAAGC | 0.995 | 1.06 | 0.93
19 | TCGAAA | 0.906 | 1.16 | 0.822
20 | CAGATC | 0.902 | 1.13 | 0.879
21 | ACAGTT | 0.8 | 0.697 | 0.829
22 | GGTCTG | 0.983 | 0.683 | 0.936
23 | TGGTCA | 0.948 | 0.745 | 0.963
24 | GCAAAC | 0.967 | 0.723 | 0.997
25 | GGCAAT | 0.961 | 0.813 | 0.928
26 | CGAACG | 0.947 | 0.851 | 0.976
27 | GTCACG | 0.935 | 0.702 | 0.981
28 | TACGAG | 0.876 | 1.05 | 0.893
29 | GTGGTC | 0.784 | 0.566 | 0.859
30 | GAAGAT | 0.812 | 1.12 | 0.923

Taken from above.
Value for GCAAAC under binding signal (FEV): 0.967
Value for GCGAAA under binding signal (ELF5): 0.923
